PubChem BioAssay AID1671195 – Yale University, 2021

- Aim: 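Regulators of LDL receptor activity judged by labelled LDL uptake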 (primary screen)
- Cells: human Huh7 hepatoma cells
- Reagent: siRNA pool against human genes, 18 nM
- Timing: about 2 to 2.5 days of knockdown, then 8 h LDL uptake
- Treatment: DiI-labelled LDL at 30 µg/ml for 8 h, in lipoprotein-deficient serum medium
- Measurement: 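Fluorescent LDL signal imaged in cells, scaled to the plate median, robust z-score for each replicate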
- Scale: robust z-score: higher = more LDL uptake after knockdown
- Call rule: 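a gene counts as active if at least two replicate z-scores exceed ±2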
The deposit covers about 22,000 reagents; below is a part drawn at random. Of all reagents, about 1,510 (6.9%) got an active call. 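Active includes knockdowns raising or lowering LDL uptake; positive z-scores mean more uptake, negative mean less.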 Unmarked entries are inactive.

After knock-down of C22orf15 (GeneID 150248), the record shows robust z-score, replicate 1 = -0.968; robust z-score, replicate 2 = -0.629; robust z-score, replicate 3 = -1.56. With knock-down of IKBKG (GeneID 8517), the record shows robust z-score, replicate 1 = -0.192; robust z-score, replicate 2 = 0.356; robust z-score, replicate 3 = -0.413. Against GOSR1 (GeneID 9527) the deposit lists robust z-score, replicate 1 = 2.93 (active); robust z-score, replicate 2 = 2.8; robust z-score, replicate 3 = 2.72. After knock-down of XK (GeneID 7504) the results were robust z-score, replicate 1 = -0.124; robust z-score, replicate 2 = -1.42; robust z-score, replicate 3 = -0.278.

Entries listed above called active (1):
GOSR1 (GeneID 9527): robust z-score, replicate 1 = 2.93 (active); robust z-score, replicate 2 = 2.8; robust z-score, replicate 3 = 2.72

More records follow.
Depletion of EPDR1 (GeneID 54749) resulted in: robust z-score, replicate 1 = -0.725; robust z-score, replicate 2 = -1.37; robust z-score, replicate 3 = -1.25. WDR38 (GeneID 401551) scored robust z-score, replicate 1 = -0.614; robust z-score, replicate 2 = -0.0778; robust z-score, replicate 3 = -0.586. After knock-down of PRDM9 (GeneID 56979) the results were robust z-score, replicate 1 = -0.315; robust z-score, replicate 2 = -0.148; robust z-score, replicate 3 = -0.156. For EEA1 (GeneID 8411) the deposit lists robust z-score, replicate 1 = -0.292; robust z-score, replicate 2 = -0.214; robust z-score, replicate 3 = -1.44. Knock-down of KDELR3 (GeneID 11015) resulted in: robust z-score, replicate 1 = -0.999; robust z-score, replicate 2 = 1.1; robust z-score, replicate 3 = -1.56. Silencing of LOC388746 (retired record) (GeneID 388746) came out at: robust z-score, replicate 1 = 0.964; robust z-score, replicate 2 = 0.484; robust z-score, replicate 3 = 0.827.

Depletion of GRK6 (GeneID 2870) came out at: robust z-score, replicate 1 = -0.782; robust z-score, replicate 2 = -1.59; robust z-score, replicate 3 = -1.67. Depletion of DNAI4 (GeneID 79819) gave: robust z-score, replicate 1 = -1.93; robust z-score, replicate 2 = -1.99; robust z-score, replicate 3 = -2.
